The match of structure and compound is tentative.
Biological target: TLR2 (Homo sapiens, UniProt O60603)
Assay: TLR2 agonist screening assay, HEK-Blue TLR2 reporter cell line (NF-kB-driven SEAP, absorbance at 600 nm)
Type: cell-based
Details: read-out: TLR2 (HEK-Blue) EC50; HEK-Blue TLR2 reporter cells, agonist mode; average of all runs (Table 4)

Protein sequences, listed by entry. Tags and fused reporters are not part of them. Residues count along the entry.
UniProt O60603, 21-784 limits assumed: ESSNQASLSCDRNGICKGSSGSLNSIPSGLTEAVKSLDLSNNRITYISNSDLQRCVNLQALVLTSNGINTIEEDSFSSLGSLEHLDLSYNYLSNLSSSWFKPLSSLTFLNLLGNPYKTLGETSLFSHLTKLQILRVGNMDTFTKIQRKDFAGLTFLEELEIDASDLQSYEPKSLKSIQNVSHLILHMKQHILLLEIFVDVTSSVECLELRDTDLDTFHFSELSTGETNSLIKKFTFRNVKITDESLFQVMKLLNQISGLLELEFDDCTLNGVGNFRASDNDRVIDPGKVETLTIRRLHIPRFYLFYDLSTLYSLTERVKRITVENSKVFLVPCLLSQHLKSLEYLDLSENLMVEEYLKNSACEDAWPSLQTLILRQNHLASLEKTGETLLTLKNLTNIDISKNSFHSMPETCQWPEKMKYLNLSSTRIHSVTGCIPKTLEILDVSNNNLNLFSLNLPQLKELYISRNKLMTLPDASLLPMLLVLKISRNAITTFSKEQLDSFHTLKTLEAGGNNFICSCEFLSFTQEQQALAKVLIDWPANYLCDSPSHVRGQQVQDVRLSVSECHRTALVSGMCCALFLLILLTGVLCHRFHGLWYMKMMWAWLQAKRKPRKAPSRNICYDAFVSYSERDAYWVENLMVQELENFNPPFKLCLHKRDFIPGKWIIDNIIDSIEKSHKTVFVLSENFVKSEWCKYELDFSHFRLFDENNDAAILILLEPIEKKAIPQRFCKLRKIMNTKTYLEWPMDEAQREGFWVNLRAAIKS

With `CCCCCCCCCCCCCCC(=O)NC1CC(=O)N(Cc2ccc(C(=O)N3C[C@@H](C(=O)N[C@H]4C[C@@H]4c4ccccc4)[C@H](C(=O)N[C@H]4C[C@@H]4c4ccccc4)C3)cc2)C1` (stereo partly shown) the EC50 was 351 to 1000 nM.

— patent publication US11951094B2, “TLR2 modulator compounds, pharmaceutical compositions and uses thereof” (Axial Therapeutics, Inc., priority 2020, dated 2024)
